PubChem BioAssay AID743121 | NCATS – 2013
Purpose: 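Genes whose silencing strengthens cell killing by camptothecin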 (primary screen). System: MDA-MB-231 cells, a human breast cancer line. Reagents: single siRNA against human genes, 20 nM siRNA (0.8 pmol per well). Timing: 120 h (drug added 48 h after transfection, read 72 h later). Conditions: camptothecin 20 nM (about EC30) for 72 h; vehicle 0.1% DMSO in parallel plates. Measured: 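Cell viability by ATP luminescence (CellTiter-Glo) as % of non-targeting siRNA wells, and the log2 ratio of viability without drug over viability with camptothecin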. Scale: log2 vehicle/camptothecin viability: higher = stronger sensitisation to camptothecin; viability with camptothecin: higher = more viable cells. Units: viability with camptothecin in % of control. Active means: 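Each gene scored by redundant siRNA activity (RSA) over its individual siRNA ratios; a gene is called active at p < 0.001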.
This is an unselected part of about 26,000 reagents. 167 of them (0.63%) count as active. 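Calls are per gene from RSA p-values that are not deposited; an individual active-marked siRNA can sensitise only weakly.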 A number with no mark means an inactive call. Reagents against one gene are numbered here. Further read-outs or replicates are left out here. Reagent sequences are not shown.

For VPS16 (GeneID 64601) #1 the deposit lists log2 vehicle/camptothecin viability -0.195; viability with camptothecin 114.
Knock-down of VPS16 (GeneID 64601) #2 gave: log2 vehicle/camptothecin viability -0.374; viability with camptothecin 52.3.
With knock-down of VPS16 (GeneID 64601) #3 the results were log2 vehicle/camptothecin viability 0.198; viability with camptothecin 47.8.
Against VPS16 (GeneID 64601) #4 the deposit lists log2 vehicle/camptothecin viability -0.311; viability with camptothecin 47.1.
Knock-down of RABEPK (GeneID 10244) #1 gave: log2 vehicle/camptothecin viability -0.0637; viability with camptothecin 92.2.
RABEPK (GeneID 10244) #2 gave log2 vehicle/camptothecin viability -0.593; viability with camptothecin 92.2.
With knock-down of RABEPK (GeneID 10244) #3 the results were log2 vehicle/camptothecin viability -0.468; viability with camptothecin 107.
For RABEPK (GeneID 10244) #4, the entry reads log2 vehicle/camptothecin viability 0.407; viability with camptothecin 40.4.

2 entries from above in another layout.
gene | reagent no. | log2 vehicle/camptothecin viability | viability with camptothecin
VPS16 (GeneID 64601) | 3 | 0.198 | 47.8
VPS16 (GeneID 64601) | 4 | -0.311 | 47.1

Additional reagents:
NME4 (GeneID 4833) #1 gave log2 vehicle/camptothecin viability 0.0474; viability with camptothecin 92.4.
For NME4 (GeneID 4833) #2, the entry reads log2 vehicle/camptothecin viability 0.659; viability with camptothecin 42.6.
Against NME4 (GeneID 4833) #3, the entry reads log2 vehicle/camptothecin viability -0.576; viability with camptothecin 106.
For NME4 (GeneID 4833) #4, the values are log2 vehicle/camptothecin viability 0.829; viability with camptothecin 57.2.
For TXLNA (GeneID 200081) #1, the entry reads log2 vehicle/camptothecin viability -0.317; viability with camptothecin 39.7.
TXLNA (GeneID 200081) #2 gave log2 vehicle/camptothecin viability -0.622; viability with camptothecin 64.5.
For TXLNA (GeneID 200081) #3 the deposit lists log2 vehicle/camptothecin viability -0.0938; viability with camptothecin 60.7.
With knock-down of TXLNA (GeneID 200081) #4, the screen gave log2 vehicle/camptothecin viability -0.271; viability with camptothecin 70.2.
